Experimental data as given in patent US12146156B2, “Use of LRP2 agonists for generating myeloid-derived suppressor cells” (The Wistar Institute of Anatomy and Biology, priority 2019, dated 2024).
For at least one compound, name, drawing or mass did not settle the structure.

Columns and labels:
[1] = test system: LRP2; test: LRP2 expression on spleen Ly6G+ neutrophils and Ly6C+ monocytes before and after treatment; assay type: cell-based; conditions: rosiglitazone 2 uM for 2 hours
[2] = test system: LRP2; test: LRP2 expression on bone marrow neutrophils (PMN) after treatment; assay type: cell-based, mice

Compound: CN(CCOc1ccc(CC2SC(=O)NC2=O)cc1)c1ccccn1 (stereo not shown) [rosiglitazone]
- LRP2 expression on Ly6C+-monocytes from spleen ([1]; FIG. 1 (left), to a lesser extent than neutrophils): increased
- LRP2 expression on Ly6G+-neutrophils from spleen ([1]; FIG. 1 (right)): increased
- Lrp2 expression in CD11b+Ly6CloLy6G+ PMN ([2]; BM cells from adult mice treated with 2M Rosiglitazone, n=4, FIG. 3A): increased expression of LRP2
- LRP2 expression on Ly6G+-neutrophils from bone marrow ([2]; rosiglitazone 2 uM, FIG. 2): increased
